Structures can show the parent of a compound that is named as a salt. The list shows a part of the results. This data set is noisy: repeats of one test often differ as much as different tests do.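 The cells were human embryonic kidney cells carrying a Renilla luciferase gene, driven by the HSV-TK promoter, on a plasmid put in briefly by transfection. This is the first-round screen of about ten thousand compounds, looking for ones that raise reporter output.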

The test system of this assay is HEK 293FT. Briefly: log relative Renilla luciferase luminescence (reporter expression vs reference, reference not stated) (log (base not stated)); higher = higher recombinant reporter expression. The note with it: 10 µM; time after transfection 48 h.
With `Cc1oncc1C(=O)Nc1ccc(C(F)(F)F)cc1` [Leflunomide], the log turned out to be 0.00816. As for `COc1ccc(C(Cl)=C(c2ccc(OC)cc2)c2ccc(OC)cc2)cc1` [Chlorotrianisene], the figure is -0.0596. As for `O=C(O)c1cccnc1Nc1cccc(C(F)(F)F)c1` [Niflumic acid], the figure is 0.0676. The same measure for `CC(CCc1ccccc1)NCC(O)c1ccc(O)c(C(N)=O)c1` (stereo unspecified) [Labetalol hydrochloride]: -0.0127; for `CCOC(=O)[C@H](CCc1ccccc1)N[C@@H](C)C(=O)N1Cc2ccccc2C[C@H]1C(=O)O` [Quinapril HCl]: 0.0404.

With `Cc1onc(-c2c(Cl)cccc2Cl)c1C(=O)N[C@@H]1C(=O)N2[C@@H]1SC(C)(C)[C@@H]2C(=O)O` [Dicloxacillin sodium salt hydrate], the log stood at 0.0581.

`CN1C(C)(C)CCCC1(C)C` [Pempidine tartrate]: the log came out at 0.288.

With `C[N+](C)(C)CCCCCC[N+](C)(C)C` [Hexamethonium dibromide dihydrate], the log came out at 0.116. The same measure for `CC[N+](C)(C)Cc1ccccc1Br` [Bretylium tosylate]: -0.00375.

As to `CN(C)/N=N/c1[nH]cnc1C(N)=O` [Dacarbazine], the log was -0.0103. The same measure for `Cc1cc2c(cc1S(N)(=O)=O)S(=O)(=O)CCC2` [Meticrane]: -0.111; for `Clc1cnccn1` [2-Chloropyrazine]: 0.123; for `NCCNCCNCCNCCN` [Tetraethylenepentamine pentahydrochloride]: 0.234. The same measure for `CC1(C)S[C@@H]2[C@H](NC(=O)[C@H](NC(=O)N3CCNC3=O)c3ccccc3)C(=O)N2[C@H]1C(=O)O` [Azlocillin sodium salt]: -0.374; for `COC(=O)Nc1nc2cc(C(=O)c3ccccc3)ccc2[nH]1` [Mebendazole]: 0.0569.

For the compound `CSc1ccc2c(c1)C(N1CCN(C)CC1)Cc1ccccc1S2` (stereo unspecified) [Methiothepin maleate], the log came to 0.12.

In the case of `CC(C(=O)O)c1ccc2c(c1)Cc1cccnc1O2` (stereo unspecified) [Pranoprofen], the log was -0.206. As for `Cc1c(C)c2c(c(C)c1O)CCC(C)(COc1ccc(CC3SC(=O)NC3=O)cc1)O2` (stereo unspecified) [Troglitazone], the figure is -0.165; as for `COC(c1ccccc1)(c1ccccc1)[C@H](Oc1nc(C)cc(C)n1)C(=O)O` [Ambrisentan], 0.111.

On to `COc1ccc([C@@H]2CC(=O)c3c(O)cc(O[C@@H]4O[C@H](CO[C@@H]5O[C@@H](C)[C@H](O)[C@@H](O)[C@H]5O)[C@@H](O)[C@H](O)[C@H]4O)cc3O2)cc1O` [Hesperidin], for which the log worked out at 0.0795. As for `CC(C)(C(=O)O)c1ccc(C(O)CCCN2CCC(C(O)(c3ccccc3)c3ccccc3)CC2)cc1` (stereo unspecified) [Fexofenadine HCl], the figure is 0.0554.

The record behind these values is the supplement of paper PMC7024190.
